US11485769B2, “Peptides and combination of peptides for use in immunotherapy and methods for generating scaffolds for the use against pancreatic cancer and other cancers” (Immatics Biotechnologies GmbH, priority 2015, dated 2022)

Test system: tumors compared to a panel of normal tissues
Test: Identification and label-free LC-MS quantitation of HLA-presented tumor associated peptides (presentation profiles/scores)
Design: species or system human; key to Peptide Presentation (presentation score): very highly over-presented on tumors compared to a panel of normal tissues (+++); highly over-presented on tumors compared to a panel of normal tissues (++); over-presented on tumors compared to a panel of normal tissues (+)
Settings: for Peptide Presentation (presentation score): over-presentation on tumors compared to a panel of normal tissues, label-free LC-MS quantitation of HLA peptides

101 (ALVEENGIFEL; listed as Homo sapiens) [compound 101]
peptide additionally found on bile duct cancers (positive/measured samples) (bile duct cancers): 1/17
peptide additionally detected on breast cancers (positive/measured samples): 2/18
peptide additionally found on colon or rectum cancers (positive/measured samples): 2/29
peptide additionally detected on esophageal cancers (positive/measured samples): 2/18
peptide additionally found on head and neck cancers (positive/measured samples): 2/8
peptide additionally detected on liver cancers (positive/measured samples): 1/21
peptide additionally detected on lung cancers (positive/measured samples): 7/107
peptide additionally detected on ovarian cancers (positive/measured samples): 6/20
peptide additionally detected on prostate cancers (positive/measured samples): 3/87
peptide additionally detected on urinary bladder cancers (positive/measured samples): 4/15
peptide additionally found on uterus cancers (positive/measured samples): 1/16

128 (ALYDVRTILL; listed as Homo sapiens) [compound 128]
peptide additionally detected on breast cancers (positive/measured samples): 2/18
peptide additionally found on colon or rectum cancers (positive/measured samples): 3/29
peptide additionally found on leukocytic leukemia cancers (positive/measured samples): 1/17
peptide additionally detected on lung cancers (positive/measured samples): 8/107
peptide additionally found on lymph node cancers (positive/measured samples): 1/20
peptide additionally detected on ovarian cancers (positive/measured samples): 1/20
Peptide Presentation (presentation score): +++
peptide additionally detected on urinary bladder cancers (positive/measured samples): 1/15

135 (KLDDTYIKA; listed as Homo sapiens) [compound 135]
Peptide Presentation (presentation score): +++

29 (YILPFSEVL; listed as Homo sapiens) [compound 29]
Peptide Presentation (presentation score): +++

174 (TLDPRSFLL; listed as Homo sapiens) [compound 174]
Peptide Presentation (presentation score): ++

147 (YAFPKAVSV; listed as Homo sapiens) [compound 147]
Peptide Presentation (presentation score): +++

73 (VMVDGKPVNL; listed as Homo sapiens) [compound 73]
Peptide Presentation (presentation score): +

27 (TLLAHPVTL; listed as Homo sapiens) [compound 27]
Peptide Presentation (presentation score): +

155 (LLLDPDTAVLKL; listed as Homo sapiens) [compound 155]
Peptide Presentation (presentation score): ++

104 (FLQPDLDSL; listed as Homo sapiens) [compound 104]
Peptide Presentation (presentation score): +++

86 (GLGDFIFYSV; listed as Homo sapiens) [compound 86]
Peptide Presentation (presentation score): +

93 (SIDSEPALV; listed as Homo sapiens) [compound 93]
Peptide Presentation (presentation score): +++

4 (ALDPAAQAFLL; listed as Homo sapiens) [compound 4]
Peptide Presentation (presentation score): +++

69 (VLFSGSLRL; listed as Homo sapiens) [compound 69]
peptide additionally detected on breast cancers (positive/measured samples): 2/18
peptide additionally detected on esophageal cancers (positive/measured samples): 1/18
peptide additionally found on gallbladder cancers (positive/measured samples) (gallbladder cancers): 1/17
peptide additionally detected on lung cancers (positive/measured samples): 9/107
peptide additionally detected on ovarian cancers (positive/measured samples): 1/20
Peptide Presentation (presentation score): +++

134 (ILLAEGRLVNL; listed as Homo sapiens) [compound 134]
Peptide Presentation (presentation score): +++

40 (GLAPQIHDL; listed as Homo sapiens) [compound 40]
Peptide Presentation (presentation score): +++

114 (SLFPHNPQFI; listed as Homo sapiens) [compound 114]
Peptide Presentation (presentation score): +++

90 (KLLTPITTL; listed as Homo sapiens) [compound 90]
Peptide Presentation (presentation score): +

82 (ALIAEGIAL; listed as Homo sapiens) [compound 82]
Peptide Presentation (presentation score): ++

100 (ALFGAGPASI; listed as Homo sapiens) [compound 100]
Peptide Presentation (presentation score): +++

25 (LINPNIATV; listed as Homo sapiens) [compound 25]
Peptide Presentation (presentation score): +++

98 (ALDQKVRSV; listed as Homo sapiens) [compound 98]
Peptide Presentation (presentation score): +

53 (LLWDPSTGKQV; listed as Homo sapiens) [compound 53]
Peptide Presentation (presentation score): +++

64 (TLFSEPKFAQV; listed as Homo sapiens) [compound 64]
Peptide Presentation (presentation score): ++

6 (ALTGIPLPLI; listed as Homo sapiens) [compound 6]
Peptide Presentation (presentation score): +++

52 (LLSDPIPEV; listed as Homo sapiens) [compound 52]
Peptide Presentation (presentation score): ++

146 (VLISGVVHEI; listed as Homo sapiens) [compound 146]
peptide additionally detected on brain cancers (positive/measured samples): 7/34
peptide additionally detected on breast cancers (positive/measured samples): 1/18
peptide additionally found on colon or rectum cancers (positive/measured samples): 2/29
peptide additionally detected on esophageal cancers (positive/measured samples): 1/18
peptide additionally detected on kidney cancers (positive/measured samples): 1/23
peptide additionally detected on liver cancers (positive/measured samples): 3/21
peptide additionally detected on lung cancers (positive/measured samples): 5/107
peptide additionally found on lymph node cancers (positive/measured samples): 1/20
peptide additionally detected on ovarian cancers (positive/measured samples): 2/20
Peptide Presentation (presentation score): +++
peptide additionally detected on prostate cancers (positive/measured samples): 1/87
peptide additionally found on skin cancers (positive/measured samples): 3/18
peptide additionally found on uterus cancers (positive/measured samples): 1/16

17 (GLIDYDTGIRL; listed as Homo sapiens) [compound 17]
Peptide Presentation (presentation score): ++

115 (SLMDPNKFLLL; listed as Homo sapiens) [compound 115]
peptide additionally detected on brain cancers (positive/measured samples): 7/29
peptide additionally detected on breast cancers (positive/measured samples): 1/6
peptide additionally detected on colorectal cancers (positive/measured samples) (colorectal cancers): 5/24
peptide additionally detected on esophageal cancers (positive/measured samples): 1/17
peptide additionally detected on gallbladder or bile duct cancers (positive/measured samples): 1/2
peptide additionally detected on kidney cancers (positive/measured samples): 3/18
peptide additionally detected on leukemias (positive/measured samples) (leukemias): 3/12
peptide additionally detected on liver cancers (positive/measured samples): 6/16
peptide additionally detected on melanomas (positive/measured samples) (melanomas): 1/2
peptide additionally detected on non-small cell lung carcinomas (positive/measured samples) (non-small cell lung carcinomas): 16/91
peptide additionally detected on ovarian cancers (positive/measured samples): 5/20
Peptide Presentation (presentation score): ++
peptide additionally detected on prostate cancers (positive/measured samples): 3/33
peptide additionally detected on small cell lung carcinomas (positive/measured samples) (small cell lung carcinomas): 3/14
peptide additionally detected on urinary bladder cancers (positive/measured samples): 1/4

157 (MLLEIPYMAA; listed as Homo sapiens) [compound 157]
Peptide Presentation (presentation score): ++

172 (TMMSRPPVL; listed as Homo sapiens) [compound 172]
Peptide Presentation (presentation score): ++

19 (ALWHDAENQTVV; listed as Homo sapiens) [compound 19]
peptide additionally detected on brain cancers (positive/measured samples): 2/34
peptide additionally detected on breast cancers (positive/measured samples): 1/18
peptide additionally detected on esophageal cancers (positive/measured samples): 1/18
peptide additionally detected on gallbladder or bile duct cancers (positive/measured samples): 2/17
peptide additionally detected on liver cancers (positive/measured samples): 1/21
peptide additionally detected on lung cancers (positive/measured samples): 8/107
Peptide Presentation (presentation score): +++
peptide additionally found on skin cancers (positive/measured samples): 2/18
peptide additionally detected on urinary bladder cancers (positive/measured samples): 2/15
peptide additionally found on uterus cancers (positive/measured samples): 1/16

148 (YLHNQGIGV; listed as Homo sapiens) [compound 148]
Peptide Presentation (presentation score): +

23 (KLDSSGGAVQL; listed as Homo sapiens) [compound 23]
Peptide Presentation (presentation score): ++

124 (ALFEESGLIRI; listed as Homo sapiens) [compound 124]
Peptide Presentation (presentation score): +++

72 (VMASPGGLSAV; listed as Homo sapiens) [compound 72]
Peptide Presentation (presentation score): +++

58 (RQYPWGVVQV; listed as Homo sapiens) [compound 58]
Peptide Presentation (presentation score): +++

83 (ALSKEIYVI; listed as Homo sapiens) [compound 83]
Peptide Presentation (presentation score): +++

123 (KISTITPQI; listed as Homo sapiens) [compound 123]
peptide additionally detected on brain cancers (positive/measured samples): 2/34
peptide additionally found on head and neck cancers (positive/measured samples): 2/8
peptide additionally detected on kidney cancers (positive/measured samples): 1/23
peptide additionally found on leukocytic leukemia cancers (positive/measured samples): 1/17
peptide additionally detected on liver cancers (positive/measured samples): 2/21
peptide additionally detected on lung cancers (positive/measured samples): 7/107
peptide additionally found on lymph node cancers (positive/measured samples): 2/20
peptide additionally found on myeloid cell cancers (positive/measured samples) (myeloid cell cancers): 1/18
Peptide Presentation (presentation score): +++
peptide additionally found on skin cancers (positive/measured samples): 1/18
peptide additionally detected on stomach cancers (positive/measured samples) (stomach cancers): 1/45
peptide additionally detected on urinary bladder cancers (positive/measured samples): 2/15
peptide additionally found on uterus cancers (positive/measured samples): 3/16

49 (LLDGFPRTV; listed as Homo sapiens) [compound 49]
Peptide Presentation (presentation score): +++

62 (SVFPGARLL; listed as Homo sapiens) [compound 62]
Peptide Presentation (presentation score): +++

74 (YIDKDLEYV; listed as Homo sapiens) [compound 74]
Peptide Presentation (presentation score): +++

63 (SVTGIIVGV; listed as Homo sapiens) [compound 63]
Peptide Presentation (presentation score): +++

105 (FLSEVFHQA; listed as Homo sapiens) [compound 105]
Peptide Presentation (presentation score): +

96 (ALAPATGGGSLLL; listed as Homo sapiens) [compound 96]
Peptide Presentation (presentation score): +

171 (LLLDVTPLSL; listed as Homo sapiens) [compound 171]
Peptide Presentation (presentation score): ++
